Measurements published in the supplement of paper PMC4604168 (melanoma cell lines).
The list shows a part of the results. Many values rest on one well or one pass, so single values are uncertain.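 Cells were imaged in 1,536-well plates, and nuclei stained with an antibody against cleaved PARP were counted against all DNA-stained nuclei to give the apoptosis fraction. Screening doses were chosen to leave most cells alive, and resting and induced cleaved-PARP levels differ strongly between cell lines.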

Columns and labels:
Assay in all cases: cleaved PARP positive nuclei fraction relative to DMSO control; melanoma cells; higher = more apoptosis
Conditions in all cases: library dose: low library concentration; 72 h
[1] = test system: MZ2-MEL
[2] = test system: MeWo
[3] = test system: RPMI7951
[4] = test system: RVH-421
[5] = test system: SkMel28
[6] = test system: SkMel2
[7] = test system: SkMel30
[8] = test system: SkMel5
[9] = test system: UACC257
[10] = test system: UACC62
[11] = test system: WM115
[12] = test system: WM1716
[13] = test system: WM1745
[14] = test system: WM3526
[15] = test system: WM3619
[16] = test system: WM451Lu

Compound: CN1CCN(c2ccc3nc(-c4c(N)c5c(F)cccc5[nH]c4=O)[nH]c3c2)CC1 [Dovitinib] + COC(=O)c1sccc1S(=O)(=O)Nc1ccc(Nc2ccccc2)cc1OC [GSK0660] (first compound 0.1 µM, partner dose 1 µM)
- cleaved PARP positive nuclei fraction [1]: 80%
- cleaved PARP positive nuclei fraction [2]: 91%
- cleaved PARP positive nuclei fraction [3]: 35.7%
- cleaved PARP positive nuclei fraction [4]: 127%
- cleaved PARP positive nuclei fraction [5]: 97.2%
- cleaved PARP positive nuclei fraction [6]: 84.4%
- cleaved PARP positive nuclei fraction [7]: 96.3%
- cleaved PARP positive nuclei fraction [8]: 77.9%
- cleaved PARP positive nuclei fraction [9]: 88.1%
- cleaved PARP positive nuclei fraction [10]: 94.2%
- cleaved PARP positive nuclei fraction [11]: 176%
- cleaved PARP positive nuclei fraction [12]: 111%
- cleaved PARP positive nuclei fraction [13]: 171%
- cleaved PARP positive nuclei fraction [14]: 79.5%
- cleaved PARP positive nuclei fraction [15]: 75.7%
- cleaved PARP positive nuclei fraction [16]: 147%

Compound: Nc1ncn([C@H]2C[C@H](O)[C@@H](CO)O2)c(=O)n1 [decitabine] + CCN(CC)CCCCNc1ncc2cc(-c3cc(OC)cc(OC)c3)c(NC(=O)NC(C)(C)C)nc2n1 [PD173074] (first compound 0.1 µM, partner dose 0.1 µM)
- cleaved PARP positive nuclei fraction [1]: 134%
- cleaved PARP positive nuclei fraction [2]: 85.5%
- cleaved PARP positive nuclei fraction [3]: 97.8%
- cleaved PARP positive nuclei fraction [4]: 113%
- cleaved PARP positive nuclei fraction [5]: 105%
- cleaved PARP positive nuclei fraction [6]: 113%
- cleaved PARP positive nuclei fraction [7]: 169%
- cleaved PARP positive nuclei fraction [8]: 78.3%
- cleaved PARP positive nuclei fraction [9]: 229%
- cleaved PARP positive nuclei fraction [10]: 124%
- cleaved PARP positive nuclei fraction [11]: 106%
- cleaved PARP positive nuclei fraction [12]: 96.6%
- cleaved PARP positive nuclei fraction [13]: 84.8%
- cleaved PARP positive nuclei fraction [14]: 36.1%
- cleaved PARP positive nuclei fraction [15]: 89.2%
- cleaved PARP positive nuclei fraction [16]: 49.5%

Compound: O=C(O)c1ccc2c(c1)nc(Nc1cccc(Cl)c1)c1ccncc12 + CCN(CC)CCCCNc1ncc2cc(-c3cc(OC)cc(OC)c3)c(NC(=O)NC(C)(C)C)nc2n1 [PD173074] (first compound 0.4 µM, partner dose 0.1 µM)
- cleaved PARP positive nuclei fraction [1]: 71.2%
- cleaved PARP positive nuclei fraction [2]: 219%
- cleaved PARP positive nuclei fraction [3]: 31.5%
- cleaved PARP positive nuclei fraction [4]: 85.8%
- cleaved PARP positive nuclei fraction [5]: 60.3%
- cleaved PARP positive nuclei fraction [6]: 129%
- cleaved PARP positive nuclei fraction [7]: 80.2%
- cleaved PARP positive nuclei fraction [8]: 73.8%
- cleaved PARP positive nuclei fraction [9]: 139%
- cleaved PARP positive nuclei fraction [10]: 100%
- cleaved PARP positive nuclei fraction [11]: 337%
- cleaved PARP positive nuclei fraction [12]: 111%
- cleaved PARP positive nuclei fraction [13]: 97.7%
- cleaved PARP positive nuclei fraction [14]: 72.6%
- cleaved PARP positive nuclei fraction [15]: 100%
- cleaved PARP positive nuclei fraction [16]: 323%

Compound: Cc1cc(Nc2cc(N3CCN(C)CC3)nc(/C=C/c3ccccc3)n2)n[nH]1 + COc1ccc(Cl)c(Nc2nc3ccccc3nc2NS(=O)(=O)c2cccc(NC(=O)C(C)(C)N)c2)c1 [XL147] (first compound 0.04 µM, partner dose 0.8 µM)
- cleaved PARP positive nuclei fraction [1]: 156%
- cleaved PARP positive nuclei fraction [2]: 68.2%
- cleaved PARP positive nuclei fraction [3]: 189%
- cleaved PARP positive nuclei fraction [4]: 50.1%
- cleaved PARP positive nuclei fraction [5]: 83.9%
- cleaved PARP positive nuclei fraction [6]: 104%
- cleaved PARP positive nuclei fraction [7]: 33.2%
- cleaved PARP positive nuclei fraction [10]: 102%
- cleaved PARP positive nuclei fraction [11]: 235%
- cleaved PARP positive nuclei fraction [12]: 46%
- cleaved PARP positive nuclei fraction [13]: 113%
- cleaved PARP positive nuclei fraction [14]: 159%
- cleaved PARP positive nuclei fraction [15]: 92.4%
- cleaved PARP positive nuclei fraction [16]: 47.8%

Compound: CS(=O)(=O)CCNCc1ccc(-c2ccc3ncnc(Nc4ccc(OCc5cccc(F)c5)c(Cl)c4)c3c2)o1 [lapatinib] + CCN(CC)CCCCNc1ncc2cc(-c3cc(OC)cc(OC)c3)c(NC(=O)NC(C)(C)C)nc2n1 [PD173074] (first compound 0.8 µM, partner dose 0.1 µM)
- cleaved PARP positive nuclei fraction [1]: 84.5%
- cleaved PARP positive nuclei fraction [2]: 142%
- cleaved PARP positive nuclei fraction [3]: 74.3%
- cleaved PARP positive nuclei fraction [4]: 28.2%
- cleaved PARP positive nuclei fraction [5]: 116%
- cleaved PARP positive nuclei fraction [6]: 48.7%
- cleaved PARP positive nuclei fraction [7]: 40.9%
- cleaved PARP positive nuclei fraction [8]: 141%
- cleaved PARP positive nuclei fraction [9]: 293%
- cleaved PARP positive nuclei fraction [10]: 162%
- cleaved PARP positive nuclei fraction [11]: 56.1%
- cleaved PARP positive nuclei fraction [12]: 418%
- cleaved PARP positive nuclei fraction [13]: 95.7%
- cleaved PARP positive nuclei fraction [14]: 80.6%
- cleaved PARP positive nuclei fraction [15]: 101%
- cleaved PARP positive nuclei fraction [16]: 36.8%

Compound: C=C(c1ccc(C(=O)O)cc1)c1cc2c(cc1C)C(C)(C)CCC2(C)C [Bexarotene] + Cn1c(Nc2ccc(C(F)(F)F)cc2)nc2cc(Oc3ccnc(-c4ncc(C(F)(F)F)[nH]4)c3)ccc21 [CHIR265] (first compound 2 µM, partner dose 0.08 µM)
- cleaved PARP positive nuclei fraction [1]: 99.4%
- cleaved PARP positive nuclei fraction [2]: 68.5%
- cleaved PARP positive nuclei fraction [3]: 75.8%
- cleaved PARP positive nuclei fraction [4]: 170%
- cleaved PARP positive nuclei fraction [5]: 125%
- cleaved PARP positive nuclei fraction [6]: 186%
- cleaved PARP positive nuclei fraction [7]: 112%
- cleaved PARP positive nuclei fraction [10]: 77.8%
- cleaved PARP positive nuclei fraction [11]: 86.8%
- cleaved PARP positive nuclei fraction [12]: 88.5%
- cleaved PARP positive nuclei fraction [13]: 117%
- cleaved PARP positive nuclei fraction [14]: 49.1%
- cleaved PARP positive nuclei fraction [15]: 107%
- cleaved PARP positive nuclei fraction [16]: 43.1%

Compound: CNC(=O)c1cc(Oc2ccc(NC(=O)Nc3ccc(Cl)c(C(F)(F)F)c3)cc2)ccn1 [sorafenib] + Cn1nnc2c(C(N)=O)ncn2c1=O [temozolomide] (first compound 0.4 µM, partner dose 2 µM)
- cleaved PARP positive nuclei fraction [1]: 92.1%
- cleaved PARP positive nuclei fraction [2]: 74.7%
- cleaved PARP positive nuclei fraction [3]: 61.6%
- cleaved PARP positive nuclei fraction [4]: 171%
- cleaved PARP positive nuclei fraction [5]: 33%
- cleaved PARP positive nuclei fraction [6]: 20.4%
- cleaved PARP positive nuclei fraction [7]: 24.8%
- cleaved PARP positive nuclei fraction [10]: 95.3%
- cleaved PARP positive nuclei fraction [11]: 31.2%
- cleaved PARP positive nuclei fraction [12]: 130%
- cleaved PARP positive nuclei fraction [13]: 85.3%
- cleaved PARP positive nuclei fraction [14]: 42.9%
- cleaved PARP positive nuclei fraction [15]: 99.3%
- cleaved PARP positive nuclei fraction [16]: 107%

Compound: Cn1c(=O)n(-c2ccc(C(C)(C)C#N)cc2)c2c3cc(-c4cnc5ccccc5c4)ccc3ncc21 + COCC[n+]1c2c(n(Cc3cnccn3)c1C)C(=O)c1ccccc1C2=O [YM155] (first compound 0.004 µM, partner dose 0.0004 µM)
- cleaved PARP positive nuclei fraction [1]: 123%
- cleaved PARP positive nuclei fraction [2]: 142%
- cleaved PARP positive nuclei fraction [3]: 116%
- cleaved PARP positive nuclei fraction [4]: 65.9%
- cleaved PARP positive nuclei fraction [5]: 113%
- cleaved PARP positive nuclei fraction [6]: 80.5%
- cleaved PARP positive nuclei fraction [7]: 56.3%
- cleaved PARP positive nuclei fraction [10]: 119%
- cleaved PARP positive nuclei fraction [11]: 136%
- cleaved PARP positive nuclei fraction [12]: 82.8%
- cleaved PARP positive nuclei fraction [13]: 85.2%
- cleaved PARP positive nuclei fraction [14]: 93.6%
- cleaved PARP positive nuclei fraction [15]: 103%
- cleaved PARP positive nuclei fraction [16]: 159%

Compound: C[C@@H](Oc1cc(-c2cnn(C3CCNCC3)c2)cnc1N)c1c(Cl)ccc(F)c1Cl [Crizotinib] + CC(=O)c1c(C)c2cnc(Nc3ccc(N4CCNCC4)cn3)nc2n(C2CCCC2)c1=O [palbociclib] (first compound 0.2 µM, partner dose 0.04 µM)
- cleaved PARP positive nuclei fraction [1]: 144%
- cleaved PARP positive nuclei fraction [2]: 436%
- cleaved PARP positive nuclei fraction [3]: 118%
- cleaved PARP positive nuclei fraction [4]: 298%
- cleaved PARP positive nuclei fraction [5]: 50.6%
- cleaved PARP positive nuclei fraction [6]: 97.6%
- cleaved PARP positive nuclei fraction [7]: 205%
- cleaved PARP positive nuclei fraction [10]: 83.8%
- cleaved PARP positive nuclei fraction [11]: 123%
- cleaved PARP positive nuclei fraction [12]: 220%
- cleaved PARP positive nuclei fraction [13]: 47.3%
- cleaved PARP positive nuclei fraction [14]: 155%
- cleaved PARP positive nuclei fraction [15]: 111%
- cleaved PARP positive nuclei fraction [16]: 115%

Compound: C=C(c1ccc(C(=O)O)cc1)c1cc2c(cc1C)C(C)(C)CCC2(C)C [Bexarotene] + Clc1ccc(Nc2nnc(Cc3ccncc3)c3ccccc23)cc1 [vatalanib] (first compound 2 µM, partner dose 2 µM)
- cleaved PARP positive nuclei fraction [1]: 88.9%
- cleaved PARP positive nuclei fraction [2]: 101%
- cleaved PARP positive nuclei fraction [3]: 106%
- cleaved PARP positive nuclei fraction [4]: 54.1%
- cleaved PARP positive nuclei fraction [5]: 109%
- cleaved PARP positive nuclei fraction [6]: 43.9%
- cleaved PARP positive nuclei fraction [7]: 61.7%
- cleaved PARP positive nuclei fraction [10]: 81%
- cleaved PARP positive nuclei fraction [11]: 55.3%
- cleaved PARP positive nuclei fraction [12]: 77.8%
- cleaved PARP positive nuclei fraction [13]: 91.6%
- cleaved PARP positive nuclei fraction [14]: 86.9%
- cleaved PARP positive nuclei fraction [15]: 99.1%
- cleaved PARP positive nuclei fraction [16]: 29.7%
